# Data: PubChem BioAssay AID445 (National Center for Advancing Translational Sciences (NCATS), 2006)
# Some of the results follow. The main result of the screen is listed elsewhere. These columns were measured beside it and carry no call. Most of these compounds were active or inconclusive in the main read-out, so they are no random draw. Potencies come from curve fits of mixed quality, noted in brackets.
# Assay: IkB Signaling
# Conditions: ABC-DLBCL IkBa-CBG/CBR dual luciferase ratio (green luciferase fused to IkBa over red control in OCI-Ly3 lymphoma cells), 4 h
# How it was run: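 Luminescence ratio of IκBα-fused green versus native red beetle luciferase in OCI-Ly3 cells, 4 h post-doxycycline with compound; red signal alone, scaled from basal (0%) to zero light (-100%), flagged nonspecific or cytotoxic effects.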
# [1] = measured here: control luc red channel unless noted
# [2] = measured here: IkB-luc green channel
# [3] = measured here: control luc red channel
compound,measurement,setting,value
Cc1c(CCC(=O)N2CCCCC2)c(=O)oc2cc3occ(C(C)(C)C)c3cc12,AC50,[1],"31.6 µM [falling, single point]"
COc1ccc(CNC(=O)Cc2ccc(NC(=O)N3CCSc4ncccc43)cc2)cc1,AC50,[1],"39.8 µM [falling, single point]"
Cc1ccc(Cc2nc3ccccc3nc2SCC(=O)N2CCN(c3ccc(F)cc3)CC2)cc1,AC50,[1],"25.1 µM [falling, single point]"
Cc1ccc(Nc2cc(C)nn2-c2nc(C)cc(C)n2)cc1,AC50,[1],"31.6 µM [falling, single point]"
Cc1ccc2oc(NC(=O)N3CCOCC3)cc(=O)c2c1,AC50,[1],"39.8 µM [falling, single point]"
Cc1cc(C)c(Cn2c(C3CC(=O)N(c4ccc(F)cc4)C3)nc3ccccc32)c(C)c1 (stereo not given),AC50,[1],"15.8 µM [falling, partial curve]"
COc1cccc(NC(=O)CSc2nc(=O)n(Cc3ccncc3)c3c2CCC3)c1,AC50,[1],"7.94 µM [falling, full curve]"
Cc1cc(NC(=O)CCC(=O)N(c2ccccc2)C(C(=O)NC2CCCC2)c2cccs2)no1 (stereo not given),AC50,[1],"15.8 µM [falling, partial curve]"
CCNc1nc2c(c(=O)n(Cc3ccccc3)c(=O)n2C)n1Cc1ccccc1,AC50,[1],"15.8 µM [falling, single point]"
CCCCNS(=O)(=O)c1ccc(C)c(-c2nnc3c4ccccc4c(C)nn23)c1,AC50,[1],"12.6 µM [falling, partial curve]"
O=C(Nc1ccc(Br)cc1)c1ccc(F)c(S(=O)(=O)N2CCc3ccccc32)c1,AC50,[1],"20 µM [falling, partial curve]"
Cc1ccc(S(=O)(=O)C(CNC(=O)C(=O)NCc2ccccc2C)c2cccs2)cc1 (stereo not given),AC50,[1],"15.8 µM [falling, partial curve]"
CCNC(=O)c1ccc(CSc2nc3ccncc3n2Cc2ccc(F)cc2)cc1,AC50,[1],"31.6 µM [falling, single point]"
O=C(OCC(=O)N1CCc2ccccc21)c1ccccc1,AC50,[1],"12.6 µM [falling, partial curve]"
CC(=O)Nc1nc(-c2ccccc2)nc(-c2ccccc2OC(C)=O)n1,AC50,[1],"20 µM [falling, partial curve]"
COc1ccc(-c2noc(-c3ccccc3C(=O)Nc3cccc(OC)c3)n2)cc1,AC50,[1],"15.8 µM [falling, partial curve]"
CCc1ccc(Nc2cc(=O)n(C3CCCCC3)c(=O)[nH]2)cc1,AC50,[1],"31.6 µM [falling, single point]"
Oc1c(CN2CCc3ccccc3C2)cc(Cl)c2cccnc12,AC50,[1],"1.26 µM [rising, full curve] [measured here: IkB-luc green channel]"
CNCC[C@H](Oc1ccc(C(F)(F)F)cc1)c1ccccc1,AC50,[2],"31.6 µM [falling, partial curve, poor fit]"
same,AC50,[3],"31.6 µM [falling, partial curve]"
O=C(NCc1ccc(F)cc1)c1ccc2c(c1)nnn2C1CCCC1,AC50,[1],"39.8 µM [falling, single point]"
COc1ccc(N2C(=O)CS(=O)(=O)C23C(=O)N(Cc2ccc(C)cc2)c2ccccc23)cc1Cl (stereo not given),AC50,[1],"31.6 µM [falling, single point]"
CCOC(=O)c1c(-c2ccccc2)csc1NC(=O)c1nn(CC)cc1Br,AC50,[1],"10 µM [falling, partial curve]"
COc1ccc(-c2cc(C)no2)cc1S(=O)(=O)N1CCN(c2ccccc2F)CC1,AC50,[1],"25.1 µM [falling, single point]"
COc1ccc(CCNc2nc3c(-c4cccc(F)c4)nnn3c3ccccc23)cc1OC,AC50,[1],"0.316 µM [falling, full curve]"
Cn1c(CSc2nnc(SCc3ccccc3)s2)nc2ccccc21,AC50,[1],"15.8 µM [falling, partial curve]"
CC1CCN(c2nc3c(S(=O)(=O)c4ccc(Cl)cc4)nnn3c3ccsc23)CC1,AC50,[1],"31.6 µM [falling, single point]"
Cc1onc(-c2c(Cl)cccc2Cl)c1C(=O)NCc1ccco1,AC50,[1],"20 µM [falling, partial curve]"
Cc1ccccc1NC(=O)CSc1cn(CC(=O)N(C(C)C)C(C)C)c2ccccc12,AC50,[1],"20 µM [falling, single point]"
CCc1ccccc1NC(=O)c1ccc(CN2C(=O)CCn3nc(C)cc32)cc1,AC50,[1],"20 µM [falling, single point]"
CC(=O)c1ccc(NC(=O)c2nc(-c3ccc(C)cc3)n3c2CCCCC3)cc1,AC50,[1],"0.0126 µM [falling, full curve]"
COc1ccc(CNc2nc3ccccc3c3nc(-c4ccccc4)nn23)cc1,AC50,[1],"0.1 µM [falling, full curve, poor fit]"
Cc1nn(-c2ccccc2)c2sc(-c3n[nH]c(=S)o3)cc12,AC50,[1],"25.1 µM [falling, single point]"
CCc1ccc(NS(=O)(=O)c2c(C)nc3sc(CC)nn3c2=O)cc1,AC50,[1],"0.501 µM [falling, full curve]"
CCC1CCCCN1C(=O)CSc1nnc(-c2ccc3c(c2)OCCO3)o1 (stereo not given),AC50,[1],"25.1 µM [falling, partial curve]"
Cc1ccc(CSc2oc(-c3cccs3)nc2S(=O)(=O)c2ccccc2)cc1,AC50,[1],"12.6 µM [falling, partial curve, poor fit]"
CCOC(=O)N1CCc2c(sc3c2c(=O)n(Cc2ccccc2)c(=O)n3Cc2ccccc2Cl)C1,AC50,[1],"25.1 µM [falling, single point]"
Cc1c(NC(=O)c2cc(-c3cccc(O)c3)on2)c(=O)n(-c2ccccc2)n1C,AC50,[1],"12.6 µM [falling, partial curve]"
COc1cccc(NC(=O)C2CCN(c3nnc(C)c4c(C)n(-c5ccccc5)nc34)CC2)c1,AC50,[1],"39.8 µM [falling, single point]"
Cc1ccc(S(=O)(=O)N(CC(=O)NCCc2ccc(Cl)cc2)c2ccccc2C)cc1,AC50,[1],"12.6 µM [falling, partial curve]"
COc1ccc(CCNC(=O)c2cnn(-c3ccc(F)cc3)c2C2CCN(C(=O)OC(C)(C)C)CC2)c(OC)c1,AC50,[1],"6.31 µM [falling, partial curve]"
CCc1ccccc1NC(=O)N1CCc2c([nH]c3ccccc23)C1c1ccc(C)cc1 (stereo not given),AC50,[1],"7.94 µM [falling, partial curve]"
COc1ccc(NC(=O)c2c(NC(=O)COc3ccccc3)sc3c2CCC(C)C3)cc1 (stereo not given),AC50,[1],"3.98 µM [falling, full curve]"
O=C(Nc1ccccc1C(F)(F)F)c1ccc2oc(=O)c(S(=O)(=O)c3ccc(F)cc3)cc2c1,AC50,[2],"3.98 µM [rising, full curve]"
same,AC50,[3],"25.1 µM [falling, partial curve]"
O=C(NCCC1=CCCCC1)c1ccc2c(=O)n3nc(Nc4ccccc4)sc3nc2c1,AC50,[1],"31.6 µM [falling, single point]"
Cc1ccc(NC(=O)CSc2nnc3[nH]c(=O)cc(-c4ccccc4)n23)cc1Cl,AC50,[1],"20 µM [falling, partial curve]"
Cc1ccc(C(=O)Nc2nc(COc3ccccc3)cs2)s1,AC50,[1],"5.01 µM [falling, partial curve]"
CCCn1c(=O)c(C(=O)NCc2ccccn2)c(O)c2ccccc21,AC50,[2],"39.8 µM [rising, single point]"
same,AC50,[3],"25.1 µM [falling, single point]"
COc1ccc(-c2noc(CCC(=O)Nc3ccc(C(F)(F)F)cc3)n2)cc1,AC50,[1],"7.94 µM [falling, partial curve]"
CCCCOc1ccc(S(=O)(=O)Nc2ccc(-c3ccc(N4CCC(C)CC4)nn3)cc2)cc1,AC50,[1],"2 µM [falling, full curve]"
COc1ccc(S(=O)(=O)Nc2ccc(-c3cn4ccsc4n3)cc2)cc1C,AC50,[1],"6.31 µM [falling, partial curve]"
O=C(O)COc1cccc(-c2ocnc2-c2nc(-c3ccccc3)c(-c3ccccc3)o2)c1,AC50,[1],"0.398 µM [falling, full curve]"
CCOc1ccc(CCNC(=O)C2CCN(C(=O)c3cc4sccc4n3CC)CC2)cc1OCC,AC50,[1],"20 µM [falling, single point]"
C=CCc1c(C)nc2nc(SCC(=O)Nc3ccc(C)c(C)c3)nn2c1C,AC50,[1],"20 µM [falling, partial curve]"
Cc1cccc(CSc2nc(-c3cccs3)ccc2C#N)c1,AC50,[1],"0.0631 µM [rising, full curve, poor fit]"
Cc1ccc(NC(=O)CSc2nncn3c2cc2sccc23)cc1F,AC50,[1],"10 µM [falling, partial curve]"
Cc1nn(-c2ccc(N3CCCC3)nn2)c(C)c1CCC(=O)Nc1ccccc1,AC50,[1],"20 µM [falling, partial curve]"
CCCCOC(=O)c1ccc(NC2=NS(=O)(=O)c3ccccc32)cc1,AC50,[1],"2.51 µM [falling, partial curve]"
Cc1ccc(-c2nc3n(n2)C(=O)CC(c2ccc(C)cc2)S3)cc1 (stereo not given),AC50,[1],"31.6 µM [falling, single point]"
COc1cccc(-c2ccc3c(N)c(C(=O)c4ccc(F)cc4)sc3n2)c1,AC50,[1],"10 µM [falling, partial curve]"
Oc1ccccc1-c1cc(C(F)(F)C(F)F)[nH]n1,AC50,[1],"10 µM [falling, partial curve]"
CCC(=O)Nc1cccc(NC(=O)c2cc3ccccc3o2)c1,AC50,[1],"1.26 µM [falling, full curve]"
NC(=O)c1ccc(-c2nc(-c3ccc4c(c3)OCO4)c(-c3ccccn3)[nH]2)cc1,AC50,[1],"15.8 µM [falling, partial curve]"

# Given with bars between the fields: entries from further up.
compound | measurement | setting | value
CCc1ccc(Nc2cc(=O)n(C3CCCCC3)c(=O)[nH]2)cc1 | AC50 | [1] | 31.6 µM [falling, single point]
Oc1c(CN2CCc3ccccc3C2)cc(Cl)c2cccnc12 | AC50 | [1] | 1.26 µM [rising, full curve] [measured here: IkB-luc green channel]

# 2 neighbouring records from above, quoted:
compound,measurement,setting,value
COc1ccc(-c2noc(-c3ccccc3C(=O)Nc3cccc(OC)c3)n2)cc1,AC50,[1],"15.8 µM [falling, partial curve]"
CCc1ccc(Nc2cc(=O)n(C3CCCCC3)c(=O)[nH]2)cc1,AC50,[1],"31.6 µM [falling, single point]"
